Assay results from article doi:10.1101/266171.
These are yes or no findings as the source states them, for the method shown. A result given as binding can be weak or reduced; the word gives no strength. For some of these results: Where a sequence is shown, tags or fusion partners need not be part of it. For some of these results: Binding seen in cells or lysates may run through a third protein. Values belong to the binder of their own block, whether it stands above or below them.

Legend:
[1] = biological target: cYFP-Exo70B2 (Arabidopsis thaliana); experiment: split reporter
[2] = biological target: GFP-Exo70B2 (Arabidopsis thaliana); experiment: co-IP
[3] = biological target: MBP-Exo70B2 (Arabidopsis thaliana); experiment: pull-down
[4] = biological target: cYFP-Exo70B2-ΔAIM1 (Arabidopsis thaliana); experiment: split reporter
[5] = biological target: cYFP-Exo70B2-ΔAIM2 (Arabidopsis thaliana); experiment: split reporter

B3: endogenous MPK3 (enzyme, UniProt Q39023 1-370)
chain: MNTGGGQYTDFPAVETHGGQFISYDIFGSLFEITSKYRPPIIPIGRGAYGIVCSVLDTETNELVAMKKIANAFDNHMDAKRTLREIKLLRHLDHENIIAIRDVVPPPLRRQFSDVYISTELMDTDLHQIIRSNQSLSEEHCQYFLYQLLRGLKYIHSANIIHRDLKPSNLLLNANCDLKICDFGLARPTSENDFMTEYVVTRWYRAPELLLNSSDYTAAIDVWSVGCIFMELMNRKPLFPGKDHVHQMRLLTELLGTPTESDLGFTHNEDAKRYIRQLPNFPRQPLAKLFSHVNPMAIDLVDRMLTFDPNRRITVEQALNHQYLAKLHDPNDEPICQKPFSFEFEQQPLDEEQIKEMIYQEAIALNPTYG
binding [2]: binds

B4: His-ATG8f (protein, UniProt Q8VYK7 1-117)
chain: MAKSSFKQEHDLEKRRAEAARIREKYPDRIPVIVEKAEKSDIPTIDKKKYLVPADLTVGQFVYVIRKRIKLSAEKAIFIFVDNVLPPAGALMSSVYEEKKDDDGFLYVTYSGENTFG
binding [3]: binds

Now from value to binder:

binding [1]: binds
B1: nYFP-MPK11 (enzyme, UniProt Q9LMM5 1-369)
chain: MSIEKPFFGDDSNRGVSINGGRYVQYNVYGNLFEVSKKYVPPLRPIGRGASGIVCAAWNSETGEEVAIKKIGNAFGNIIDAKRTLREIKLLKHMDHDNVIAIIDIIRPPQPDNFNDVHIVYELMDTDLHHIIRSNQPLTDDHSRFFLYQLLRGLKYVHSANVLHRDLKPSNLLLNANCDLKIGDFGLARTKSETDFMTEYVVTRWYRAPELLLNCSEYTAAIDIWSVGCILGEIMTREPLFPGRDYVQQLRLITELIGSPDDSSLGFLRSDNARRYVRQLPQYPRQNFAARFPNMSVNAVDLLQKMLVFDPNRRITVDEALCHPYLAPLHEYNEEPVCVRPFHFDFEQPSLTEENIKELIYRESVKFNP

binding [1]: binds
B2: nYFP-MPK3 (enzyme, UniProt Q39023 1-370)
chain: MNTGGGQYTDFPAVETHGGQFISYDIFGSLFEITSKYRPPIIPIGRGAYGIVCSVLDTETNELVAMKKIANAFDNHMDAKRTLREIKLLRHLDHENIIAIRDVVPPPLRRQFSDVYISTELMDTDLHQIIRSNQSLSEEHCQYFLYQLLRGLKYIHSANIIHRDLKPSNLLLNANCDLKICDFGLARPTSENDFMTEYVVTRWYRAPELLLNSSDYTAAIDVWSVGCIFMELMNRKPLFPGKDHVHQMRLLTELLGTPTESDLGFTHNEDAKRYIRQLPNFPRQPLAKLFSHVNPMAIDLVDRMLTFDPNRRITVEQALNHQYLAKLHDPNDEPICQKPFSFEFEQQPLDEEQIKEMIYQEAIALNPTYG

binding [4]: binds
binding [5]: binds
binding [1]: binds
B5: nYFP-ATG8f (protein, UniProt Q8VYK7 1-117)
chain: MAKSSFKQEHDLEKRRAEAARIREKYPDRIPVIVEKAEKSDIPTIDKKKYLVPADLTVGQFVYVIRKRIKLSAEKAIFIFVDNVLPPAGALMSSVYEEKKDDDGFLYVTYSGENTFG
